Data as given in PubChem BioAssay AID1259300 (Sanger Institute, 2017)
Purpose: 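Which knock-downs harm HCT15 alone or synergise with the drugs BYL719, cetuximab or trametinib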 (primary screen). System: HCT15 colorectal cancer cells. Reagents: siRNA pool against human genes. Treatment: anchor drug or DMSO vehicle added 24 h after seeding: BYL719 1 µM, cetuximab 5 µg/ml, trametinib 10 nM; drug doses chosen to barely affect viability alone. Detection: 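Replicate-mean viability relative to non-targeting pool control with robust z-score for knock-down without drug; per-drug synergy scores for BYL719 (1 µM), cetuximab (5 µg/ml), trametinib (10 nM)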. Reading the numbers: viability z-score, siRNA alone: higher = more viable cells after knock-down; viability vs non-targeting, siRNA alone: higher = more viable cells. Active means: 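Called active (essential) if viability z-score with knock-down alone falls below -3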. Meaning of the calls: active = essential: knock-down alone lowers viability (z below -3); inactive = no strong viability loss with knock-down alone.
In all, the deposit lists 794 reagents; shown is a random part of them. 18 of them (2.3%) count as active. 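Calls rest on knock-down alone, not drug synergy; depositor treated synergy scores above 0.15 as synergistic; drug doses alone had little viability effect.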 No viability above 1 is reported: the scale is capped. Not all columns of the deposit are shown. Not given: the amount of reagent, the time to read-out.

What is on record for PPP2R1A?
viability z-score, siRNA alone: -0.954; viability vs non-targeting, siRNA alone: 0.885; Outcome: inactive

For TRIB2, what does the deposit list?
viability z-score, siRNA alone: 0.625; viability vs non-targeting, siRNA alone: 1; Outcome: inactive

For PANK3, how do the results read?
viability z-score, siRNA alone: 0.625; viability vs non-targeting, siRNA alone: 1; Outcome: inactive

For DYRK4, what does the deposit list?
viability z-score, siRNA alone: 0.625; viability vs non-targeting, siRNA alone: 1; Outcome: inactive

For CAMKK1, how do the results read?
viability z-score, siRNA alone: -0.0304; viability vs non-targeting, siRNA alone: 0.952; Outcome: inactive

2 of these entries in another layout.
gene knocked down | viability z-score, siRNA alone | viability vs non-targeting, siRNA alone | Outcome
TRIB2 | 0.625 | 1 | inactive
PANK3 | 0.625 | 1 | inactive

Further reagents:
For CDK11B, what does the deposit list?
viability z-score, siRNA alone: -0.276; viability vs non-targeting, siRNA alone: 0.935; Outcome: inactive

With GOLGA5, what was measured?
viability z-score, siRNA alone: 0.222; viability vs non-targeting, siRNA alone: 0.971; Outcome: inactive

How did the screen score DGKA?
viability z-score, siRNA alone: -0.786; viability vs non-targeting, siRNA alone: 0.897; Outcome: inactive

For PFKFB4, what does the deposit list?
viability z-score, siRNA alone: 0.625; viability vs non-targeting, siRNA alone: 1; Outcome: inactive

With NIM1K, how do the results read?
viability z-score, siRNA alone: 0.107; viability vs non-targeting, siRNA alone: 0.962; Outcome: inactive

What is on record for NEK2?
viability z-score, siRNA alone: 0.625; viability vs non-targeting, siRNA alone: 1; Outcome: inactive

For TBK1, how do the results read?
viability z-score, siRNA alone: -0.0794; viability vs non-targeting, siRNA alone: 0.949; Outcome: inactive
